No constants are given. Whether binding was seen depends on the method and setting. In cells and extracts the contact can be indirect. Some binding calls cover weakened binding; strength is not graded here. For some of these results: Where a sequence is shown, tags or fusion partners need not be part of it. Blank lines part the entries; values can stand above or below the molecule they belong to.
Experiments:
[1] = molecular target: FLAG-tagged human PEPI (aa 18-593) expressed from pCMVI-FLAG in HEK293 cells (human) (UniProt P28799); assay: co-immunoprecipitation from HEK293 conditioned medium (anti-FLAG IP, anti-SLPI blot)
[2] = molecular target: recombinant human PEPI (aa 18-593) with an N-terminal FLAG-6xHis tag, purified from HEK293 conditioned medium (human) (UniProt P28799); assay: co-immunoprecipitation
[3] = molecular target: recombinant human PEPI (aa 18-593) with an N-terminal FLAG-6xHis tag, purified from HEK293 conditioned medium (human) (UniProt P28799); assay: co-immunoprecipitation of pure recombinant proteins
[4] = molecular target: recombinant human PEPI (aa 18-593) with an N-terminal FLAG-6xHis tag, purified from HEK293 conditioned medium (human) (UniProt P28799); assay: reciprocal co-immunoprecipitation of pure recombinant proteins (5 pmol each)
[5] = molecular target: T1, mouse PEPI terminal deletion (truncation) mutants containing EPIs G, F, B, A and C (mouse) (UniProt P28798); assay: co-immunoprecipitation after co-transfection in COS-1 cells
T1 sequence: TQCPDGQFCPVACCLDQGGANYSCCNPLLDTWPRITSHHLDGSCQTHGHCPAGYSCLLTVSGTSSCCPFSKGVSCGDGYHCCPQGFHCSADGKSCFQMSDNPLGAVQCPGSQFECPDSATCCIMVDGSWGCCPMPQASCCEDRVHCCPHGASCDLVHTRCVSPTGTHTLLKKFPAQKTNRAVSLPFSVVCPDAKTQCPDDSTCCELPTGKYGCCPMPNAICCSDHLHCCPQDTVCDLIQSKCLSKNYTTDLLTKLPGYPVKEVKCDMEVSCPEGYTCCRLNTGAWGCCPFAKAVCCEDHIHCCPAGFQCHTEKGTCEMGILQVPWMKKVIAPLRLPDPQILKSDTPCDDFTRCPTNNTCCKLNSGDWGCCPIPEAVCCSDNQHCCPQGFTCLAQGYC

By UniProt entry, the sequences of proteins in these tests, tags left out. Where a name states a change or a piece, a line headed by the entry shows the natural chain unless it says otherwise.
UniProt P28799: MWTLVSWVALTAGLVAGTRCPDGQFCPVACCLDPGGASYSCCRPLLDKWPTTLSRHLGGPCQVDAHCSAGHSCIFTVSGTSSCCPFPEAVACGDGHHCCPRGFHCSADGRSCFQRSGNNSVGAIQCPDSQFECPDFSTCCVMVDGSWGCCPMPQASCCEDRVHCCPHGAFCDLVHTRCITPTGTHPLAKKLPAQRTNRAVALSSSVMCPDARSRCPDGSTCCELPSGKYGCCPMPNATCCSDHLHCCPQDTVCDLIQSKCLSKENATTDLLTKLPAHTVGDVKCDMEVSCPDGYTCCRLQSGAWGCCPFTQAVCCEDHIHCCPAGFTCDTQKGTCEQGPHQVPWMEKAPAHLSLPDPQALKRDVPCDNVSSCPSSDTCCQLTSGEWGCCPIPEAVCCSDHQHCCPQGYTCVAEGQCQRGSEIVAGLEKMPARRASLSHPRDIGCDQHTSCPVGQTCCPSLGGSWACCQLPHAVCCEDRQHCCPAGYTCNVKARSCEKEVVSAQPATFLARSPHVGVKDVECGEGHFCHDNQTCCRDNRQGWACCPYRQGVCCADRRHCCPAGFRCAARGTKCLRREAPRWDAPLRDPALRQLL
UniProt P03973: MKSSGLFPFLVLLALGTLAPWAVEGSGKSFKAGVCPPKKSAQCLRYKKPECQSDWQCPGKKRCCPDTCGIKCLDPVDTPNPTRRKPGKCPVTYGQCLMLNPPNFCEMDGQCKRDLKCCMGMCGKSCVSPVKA

[6] = molecular target: T2, FLAG-tagged mouse PEPI expressed in COS-1 cells (mouse) (UniProt P28798); assay: co-immunoprecipitation from COS-1 conditioned medium (anti-FLAG IP, anti-SLPI blot)
T2 sequence: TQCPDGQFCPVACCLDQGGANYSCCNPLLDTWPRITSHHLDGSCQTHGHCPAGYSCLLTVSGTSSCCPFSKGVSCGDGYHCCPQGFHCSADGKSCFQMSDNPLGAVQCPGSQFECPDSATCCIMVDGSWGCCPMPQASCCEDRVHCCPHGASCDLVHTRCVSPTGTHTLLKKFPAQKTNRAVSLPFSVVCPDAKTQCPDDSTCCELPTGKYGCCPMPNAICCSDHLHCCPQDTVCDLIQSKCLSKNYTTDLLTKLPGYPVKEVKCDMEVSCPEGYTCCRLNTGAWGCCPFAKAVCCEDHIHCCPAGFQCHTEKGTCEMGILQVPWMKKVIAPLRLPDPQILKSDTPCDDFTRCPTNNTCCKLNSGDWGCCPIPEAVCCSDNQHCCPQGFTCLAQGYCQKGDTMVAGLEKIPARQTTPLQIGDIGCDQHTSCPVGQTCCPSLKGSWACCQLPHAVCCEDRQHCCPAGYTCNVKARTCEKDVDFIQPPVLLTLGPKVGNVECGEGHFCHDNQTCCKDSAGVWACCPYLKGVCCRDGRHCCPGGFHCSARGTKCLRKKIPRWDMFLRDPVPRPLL

[7] = molecular target: T2, FLAG-tagged mouse PEPI expressed in COS-1 cells (mouse); assay: co-immunoprecipitation of SLPI domain constructs with PEPI (not shown)

binding [1]: binds
Molecule: human SLPI, full-length construct (aa 1-131) expressed from pcDNA3.1 in HEK293 cells (from UniProt P03973 26-131)

binding [2]: binds
binding [3]: binds
binding [4]: binds
Molecule: recombinant human SLPI (Amgen) (from UniProt P03973 26-132)

binding [5]: binds
binding [6]: binds
B1: mouse SLPI, full length construct (aa 1-131) expressed from pcDNA3.1 in COS-1 cells (protein)
chain: GKNDAIKIGACPAKKPAQCLKLEKPQCRTDWECPGKQRCCQDACGSKCVNPVPIRKPVWRKPGRCVKTQARCMMLNPPNVCQRDGQCDGKYKCCEGICGKVCLPPM

binding [7]: binds
B2: mouse SLPI C-terminal domain construct (aa 1-25/81-131) (protein)
chain: KPVWRKPGRCVKTQARCMMLNPPNVCQRDGQCDGKYKCCEGICGKVCLPPM
